Six molecules from paper PMC8564675 can be followed below.

The chains behind the UniProt entries cited, without tags or fusion partners. Where a name states a change or a piece, a line headed by the entry shows the natural chain unless it says otherwise.
UniProt Q9EQH4: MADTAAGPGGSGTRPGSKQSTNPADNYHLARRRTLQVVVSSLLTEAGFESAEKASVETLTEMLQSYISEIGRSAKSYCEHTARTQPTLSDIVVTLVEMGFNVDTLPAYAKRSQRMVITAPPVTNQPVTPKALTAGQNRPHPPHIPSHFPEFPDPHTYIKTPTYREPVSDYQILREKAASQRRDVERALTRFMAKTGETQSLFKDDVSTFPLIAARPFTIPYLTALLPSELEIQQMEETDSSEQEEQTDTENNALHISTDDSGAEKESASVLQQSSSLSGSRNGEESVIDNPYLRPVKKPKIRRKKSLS
UniProt Q8C092: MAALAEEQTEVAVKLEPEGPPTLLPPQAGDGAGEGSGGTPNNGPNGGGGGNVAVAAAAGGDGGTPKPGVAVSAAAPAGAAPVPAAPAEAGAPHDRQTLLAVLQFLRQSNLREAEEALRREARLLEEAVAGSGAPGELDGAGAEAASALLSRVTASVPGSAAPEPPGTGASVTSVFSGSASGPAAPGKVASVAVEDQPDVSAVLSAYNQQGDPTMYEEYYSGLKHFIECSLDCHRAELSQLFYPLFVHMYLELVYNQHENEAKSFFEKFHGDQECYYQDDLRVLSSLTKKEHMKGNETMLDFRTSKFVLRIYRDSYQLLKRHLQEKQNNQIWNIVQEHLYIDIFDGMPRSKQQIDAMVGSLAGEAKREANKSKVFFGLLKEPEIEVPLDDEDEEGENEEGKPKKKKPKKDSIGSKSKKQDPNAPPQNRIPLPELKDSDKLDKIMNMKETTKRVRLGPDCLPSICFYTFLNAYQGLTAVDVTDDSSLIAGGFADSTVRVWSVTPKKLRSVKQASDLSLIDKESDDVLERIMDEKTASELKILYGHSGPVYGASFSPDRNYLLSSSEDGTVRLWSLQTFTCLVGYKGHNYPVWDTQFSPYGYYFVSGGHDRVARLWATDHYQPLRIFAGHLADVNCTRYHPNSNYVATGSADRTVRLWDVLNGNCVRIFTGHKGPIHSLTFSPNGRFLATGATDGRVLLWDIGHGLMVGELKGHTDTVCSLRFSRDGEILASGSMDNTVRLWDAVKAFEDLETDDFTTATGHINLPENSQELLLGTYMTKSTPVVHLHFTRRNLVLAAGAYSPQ
UniProt Q62311: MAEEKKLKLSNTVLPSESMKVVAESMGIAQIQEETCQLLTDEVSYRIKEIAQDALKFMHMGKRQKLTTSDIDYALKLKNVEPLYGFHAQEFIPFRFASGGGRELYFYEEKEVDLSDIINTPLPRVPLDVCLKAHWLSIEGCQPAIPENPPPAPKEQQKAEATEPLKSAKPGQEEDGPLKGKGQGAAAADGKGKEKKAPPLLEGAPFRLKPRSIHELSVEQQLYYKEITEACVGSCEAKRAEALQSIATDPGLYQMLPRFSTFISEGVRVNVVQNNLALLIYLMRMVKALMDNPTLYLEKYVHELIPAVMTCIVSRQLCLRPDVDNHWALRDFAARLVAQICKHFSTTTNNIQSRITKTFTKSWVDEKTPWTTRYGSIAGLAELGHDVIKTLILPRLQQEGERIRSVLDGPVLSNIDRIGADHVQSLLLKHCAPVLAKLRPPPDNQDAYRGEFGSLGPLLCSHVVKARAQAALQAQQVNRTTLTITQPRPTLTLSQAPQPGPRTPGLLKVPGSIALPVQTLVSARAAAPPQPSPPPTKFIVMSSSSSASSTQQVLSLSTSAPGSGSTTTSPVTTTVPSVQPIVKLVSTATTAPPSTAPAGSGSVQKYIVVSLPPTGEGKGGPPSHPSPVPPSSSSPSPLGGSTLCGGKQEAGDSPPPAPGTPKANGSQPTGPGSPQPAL
UniProt Q8VI33: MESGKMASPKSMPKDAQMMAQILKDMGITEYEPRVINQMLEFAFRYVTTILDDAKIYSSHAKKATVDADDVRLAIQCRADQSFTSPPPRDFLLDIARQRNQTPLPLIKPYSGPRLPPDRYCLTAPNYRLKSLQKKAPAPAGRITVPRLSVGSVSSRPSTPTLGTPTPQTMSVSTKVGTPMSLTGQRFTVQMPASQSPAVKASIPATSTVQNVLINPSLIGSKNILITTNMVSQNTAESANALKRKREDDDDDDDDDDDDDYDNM
UniProt Q8K0H5: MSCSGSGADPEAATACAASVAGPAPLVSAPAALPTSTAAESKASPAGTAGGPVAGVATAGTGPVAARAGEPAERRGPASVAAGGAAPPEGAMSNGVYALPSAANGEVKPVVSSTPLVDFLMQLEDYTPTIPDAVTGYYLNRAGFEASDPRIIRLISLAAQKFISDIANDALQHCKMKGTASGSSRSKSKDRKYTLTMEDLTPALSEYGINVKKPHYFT

Assay in all cases: affinity purification with mass spectrometry; anti-Flag IP from whole cell extracts of Dox-treated mouse ESCs expressing Flag-mTAF8 WT or deletions; washes with IP500 and IP100 buffer, elution with 0.1 M glycine pH 2.8; LC MS/MS, NSAF normalised to the bait
In assay [1] the target is Flag-tagged mouse TAF8 WT (mouse) (UniProt Q9EQH4).
For assay [2], the target named is Flag-mTAF8Δ117–140 (mouse) (UniProt Q9EQH4).
The target of assay [3] is Flag-mTAF8Δ141–184 (mouse) (UniProt Q9EQH4).

Results are given in words; binding and its absence hold for the method and conditions named. In cells and extracts the contact can be indirect. Here binding means that the protein was enriched with, or labelled near, the bait; the list need not be complete. For some of these results: A no says only that the protein was not detected with the bait.

“endogenous mouse TAF5 (from UniProt Q8C092 1-801)”: the figures for the binding result in assay [1], in assay [2] and in assay [3] were “binds”, “binds” and “no binding”, respectively.
With “endogenous mouse TAF6 (from UniProt Q62311 1-678)”, the figures for the binding result in assay [1], in assay [2] and in assay [3] were “binds”, “binds” and “no binding”, respectively.
Consider “endogenous mouse TAF9 (from UniProt Q8VI33 1-264)”, for which the binding entry is recorded as “binds” in assay [1] and “no binding” in assay [3].
For “endogenous mouse TAF10 (from UniProt Q8K0H5 1-218)”, the binding entry is “binds” in assay [1] and “no binding” in assay [3].

B1: endogenous mouse TAF4b (protein, UniProt G5E8Z2 1-850)
chain: MPAGLTEPAGAAAPVVSSASGAVTMAPVAALPVRVEGTPVALGPVTKAPVSVCVESVAPQPLPAPVGTLVTKVVPVTALPKLGSPRLPAPQIVTVKTPGTTTIQLPANLQLPPGTVLIKSNSGQLMLVSPQQAVTGAKTTSNITPRPAVPANTQTVKICTVPNSSSQLMKKVTVAPVKNLTQIGTTVATTASSTSSGQPVALPSSVITVTPAKLVNTVSTLKSSSLGVLSTPSNDARLKAETSVAAQTALPPTVLENVKKCKNFLSMLIKLACSGSQSPEMGQNVKRLVEQLLDAEIEAEEFTRKLYIELKSAPQPHLVPFLKKSVVALRQLLPNSQSFIENCVKEVSGDVVISSCTMTTATSPVVTSTVSPVLVSGATAPRTLSVQQTLNPLAGPGVANTGVVTLHSVAPAAATGGTTAATVLLQTSKPLTTSVPNTVAAVSLQPENPVVSGAAVTLAIPSATFGEASATPLCLPSAKPAITSAGTKADKPAIGTPVQIVTQPSTLLPQAAGIPQTAKVKQLVVQQPSGSSVNHVTSISHSSPLSTQNCGQKTPVNAVMPTSSIIKQITLPGNKLLSLQAQRSSIQSNKIKENGPTCFRGEDDINDVTFMAEVNLDEENACILAAHSDFVGTLIQSCKEEPFLVIGALQKRILDIGKKHDITELNSDAVNLISHATQERLRGLLEKLTTIAQHRMTIYKGSENYILSTDTRSQLKFLEKLDQLEKQRKDLEEREMLLKAAKSRSNKEDPEQLRLKQKAKELQQLELAQIQYRDANLTALAAIGPRKKRPLESGNESFKDNPSTSGTSSLTATKPFRPRITRICLRDLIFCMEQEREMKYSRALYLALLK
As for B1, the figures for the binding result in assay [1], in assay [2] and in assay [3] were “binds”, “binds” and “no binding”, respectively.

B2: endogenous mouse TAF12 (protein, UniProt Q8VE65 1-161)
chain: MNQFGPSALINLSSFSSVKPEPASTPPQGSMANSTTVGKIAGTPGTGGRLSPENNQVLTKKKLQDLVREVDPNEQLDEDVEEMLLQIADDFIESVVTAACQLARHRKSSTLEVKDVQLHLERQWNMWIPGFGSEEIRPYKKACTTEAHKQRMALIRKTTKK
With B2, the binding result in assay [1] is on record as “binds”; in assay [2], “binds”; in assay [3] it was “no binding”.
